These are yes or no findings as the source states them, for the method shown. In cells and extracts the contact can be indirect. A yes stands for co-enrichment or nearness to the bait. Other partners may have been found. Where a sequence is shown, tags or fusion partners need not be part of it.
T1: GST-tagged BsFlhG (Bacillus subtilis NCIB 3610) (UniProt P40742)
T1 sequence: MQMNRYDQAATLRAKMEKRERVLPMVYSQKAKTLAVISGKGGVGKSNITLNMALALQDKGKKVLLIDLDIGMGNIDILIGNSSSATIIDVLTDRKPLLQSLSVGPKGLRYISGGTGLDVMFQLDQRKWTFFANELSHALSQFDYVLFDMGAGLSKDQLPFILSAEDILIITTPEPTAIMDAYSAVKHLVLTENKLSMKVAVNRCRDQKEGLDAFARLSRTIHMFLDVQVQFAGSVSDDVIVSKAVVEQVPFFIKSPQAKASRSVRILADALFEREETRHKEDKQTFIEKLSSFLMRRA


Biological target: T1, GST-tagged BsFlhG (Bacillus subtilis NCIB 3610)
Test: affinity purification with mass spectrometry; purified GST-FlhG incubated with lysate of B. subtilis 3610 in the logarithmic growth phase; GST pulldown, Coomassie-stained SDS-PAGE and mass spectrometry; control: lysate without GST-tagged protein; only the target purified

| binding | Binder |
| --- | --- |
| binds | GpsB (B. subtilis, from cell lysate) (protein, UniProt P0CI74 1-98) MLADKVKLSAKEILEKEFKTGVRGYKQEDVDKFLDMIIKDYETFHQEIEELQQENLQLKKQLEEASKKQPVQSNTTNFDILKRLSNLEKHVFGSKLYD |
| binds | FliY (B. subtilis, from cell lysate) (protein, UniProt P24073 1-378) MENNRLSQDEIDALLNGTGSTLDEPEIPEVDDLSEMERDAIGEIGNISFGSSATALSTLLNQKVDITTPSVTVIPRSKISDAFPEPYVAIEVNYTEGFSGSNLLVVEQSDAAIIADLMIGGDGKGADPSLGEIHLSAVQEAMNQMMGSAATSMSTVFSKKIDISPPRVELLDVTEEKGTDRIPDDEMLVKVSFNLKVGELIDSSIMQLYPLTFAKDLISSLMNSESAEEEETVQPEVTYEQPKEPVTPEPRIEPKQQQQPPKRQGTAKKAAPVQVSPVEFSAFDPNEAVQAPIHNLDMLLDIPLSITVELGRTKRSVKEILELSAGSIIELDKLAGEPVDILVNQRIVAKGEVVVIEENFGVRVTDILSQAERINNLK |

From publication PMC12327844
